Measurements as given in the supplement of paper PMC11006884.
What follows is the remainder of the data, with few or none of the targets with a hit. Single values of this set are uncertain. Only a part is listed here, and it is no random draw.

Chains of the proteins cited; added tags and fusions are not shown. Lines headed by an entry give the natural chain unless they say otherwise; changes in a name come on top.
UniProt Q99614: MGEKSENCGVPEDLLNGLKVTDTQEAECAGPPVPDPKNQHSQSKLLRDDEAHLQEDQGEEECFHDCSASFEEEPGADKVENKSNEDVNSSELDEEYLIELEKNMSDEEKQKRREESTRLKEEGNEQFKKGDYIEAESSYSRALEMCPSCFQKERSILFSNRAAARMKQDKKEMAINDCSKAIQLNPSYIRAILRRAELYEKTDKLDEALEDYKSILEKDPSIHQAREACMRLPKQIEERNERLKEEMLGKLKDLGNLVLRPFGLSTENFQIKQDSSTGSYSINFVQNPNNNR
UniProt Q99497, whole entry, looked up: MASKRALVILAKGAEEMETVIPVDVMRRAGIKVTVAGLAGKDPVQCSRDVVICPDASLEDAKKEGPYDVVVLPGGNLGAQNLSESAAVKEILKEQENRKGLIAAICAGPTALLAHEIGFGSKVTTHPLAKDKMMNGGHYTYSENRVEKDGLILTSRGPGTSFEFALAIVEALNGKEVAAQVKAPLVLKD
UniProt Q96K76: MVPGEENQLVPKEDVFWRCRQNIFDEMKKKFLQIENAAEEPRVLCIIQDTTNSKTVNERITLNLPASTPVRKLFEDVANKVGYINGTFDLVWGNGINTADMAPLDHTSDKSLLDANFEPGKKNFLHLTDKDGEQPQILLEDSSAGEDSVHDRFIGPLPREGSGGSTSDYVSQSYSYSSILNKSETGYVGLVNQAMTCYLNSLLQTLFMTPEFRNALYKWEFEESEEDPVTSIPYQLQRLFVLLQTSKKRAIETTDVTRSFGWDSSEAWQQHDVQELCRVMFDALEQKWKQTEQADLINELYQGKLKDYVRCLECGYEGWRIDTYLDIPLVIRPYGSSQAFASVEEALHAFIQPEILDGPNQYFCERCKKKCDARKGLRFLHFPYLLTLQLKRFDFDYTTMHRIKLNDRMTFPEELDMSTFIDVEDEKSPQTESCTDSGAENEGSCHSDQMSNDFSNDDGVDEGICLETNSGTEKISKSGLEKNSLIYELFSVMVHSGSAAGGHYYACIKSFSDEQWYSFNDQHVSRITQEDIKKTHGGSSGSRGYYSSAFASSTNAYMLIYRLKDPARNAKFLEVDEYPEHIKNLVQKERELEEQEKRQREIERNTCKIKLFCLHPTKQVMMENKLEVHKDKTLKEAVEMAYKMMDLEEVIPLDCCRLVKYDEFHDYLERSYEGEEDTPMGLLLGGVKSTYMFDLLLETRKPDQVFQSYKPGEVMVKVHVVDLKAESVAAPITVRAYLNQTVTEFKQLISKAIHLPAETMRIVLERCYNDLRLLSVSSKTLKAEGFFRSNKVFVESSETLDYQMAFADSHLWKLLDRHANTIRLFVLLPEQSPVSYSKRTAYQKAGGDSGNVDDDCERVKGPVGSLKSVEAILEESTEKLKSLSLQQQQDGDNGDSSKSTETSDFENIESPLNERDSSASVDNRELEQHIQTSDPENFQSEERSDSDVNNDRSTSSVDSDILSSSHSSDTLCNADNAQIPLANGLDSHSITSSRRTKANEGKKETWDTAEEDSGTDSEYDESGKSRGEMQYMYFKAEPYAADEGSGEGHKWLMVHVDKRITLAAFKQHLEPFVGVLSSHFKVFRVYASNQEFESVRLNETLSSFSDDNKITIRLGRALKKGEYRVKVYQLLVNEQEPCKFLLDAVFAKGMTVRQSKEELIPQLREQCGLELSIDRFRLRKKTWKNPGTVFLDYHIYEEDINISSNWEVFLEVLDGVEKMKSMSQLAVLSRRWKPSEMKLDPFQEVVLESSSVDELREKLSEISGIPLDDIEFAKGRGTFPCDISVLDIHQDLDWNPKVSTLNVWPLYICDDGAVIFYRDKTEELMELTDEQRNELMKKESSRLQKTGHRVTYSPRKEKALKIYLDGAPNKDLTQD
UniProt Q96T23: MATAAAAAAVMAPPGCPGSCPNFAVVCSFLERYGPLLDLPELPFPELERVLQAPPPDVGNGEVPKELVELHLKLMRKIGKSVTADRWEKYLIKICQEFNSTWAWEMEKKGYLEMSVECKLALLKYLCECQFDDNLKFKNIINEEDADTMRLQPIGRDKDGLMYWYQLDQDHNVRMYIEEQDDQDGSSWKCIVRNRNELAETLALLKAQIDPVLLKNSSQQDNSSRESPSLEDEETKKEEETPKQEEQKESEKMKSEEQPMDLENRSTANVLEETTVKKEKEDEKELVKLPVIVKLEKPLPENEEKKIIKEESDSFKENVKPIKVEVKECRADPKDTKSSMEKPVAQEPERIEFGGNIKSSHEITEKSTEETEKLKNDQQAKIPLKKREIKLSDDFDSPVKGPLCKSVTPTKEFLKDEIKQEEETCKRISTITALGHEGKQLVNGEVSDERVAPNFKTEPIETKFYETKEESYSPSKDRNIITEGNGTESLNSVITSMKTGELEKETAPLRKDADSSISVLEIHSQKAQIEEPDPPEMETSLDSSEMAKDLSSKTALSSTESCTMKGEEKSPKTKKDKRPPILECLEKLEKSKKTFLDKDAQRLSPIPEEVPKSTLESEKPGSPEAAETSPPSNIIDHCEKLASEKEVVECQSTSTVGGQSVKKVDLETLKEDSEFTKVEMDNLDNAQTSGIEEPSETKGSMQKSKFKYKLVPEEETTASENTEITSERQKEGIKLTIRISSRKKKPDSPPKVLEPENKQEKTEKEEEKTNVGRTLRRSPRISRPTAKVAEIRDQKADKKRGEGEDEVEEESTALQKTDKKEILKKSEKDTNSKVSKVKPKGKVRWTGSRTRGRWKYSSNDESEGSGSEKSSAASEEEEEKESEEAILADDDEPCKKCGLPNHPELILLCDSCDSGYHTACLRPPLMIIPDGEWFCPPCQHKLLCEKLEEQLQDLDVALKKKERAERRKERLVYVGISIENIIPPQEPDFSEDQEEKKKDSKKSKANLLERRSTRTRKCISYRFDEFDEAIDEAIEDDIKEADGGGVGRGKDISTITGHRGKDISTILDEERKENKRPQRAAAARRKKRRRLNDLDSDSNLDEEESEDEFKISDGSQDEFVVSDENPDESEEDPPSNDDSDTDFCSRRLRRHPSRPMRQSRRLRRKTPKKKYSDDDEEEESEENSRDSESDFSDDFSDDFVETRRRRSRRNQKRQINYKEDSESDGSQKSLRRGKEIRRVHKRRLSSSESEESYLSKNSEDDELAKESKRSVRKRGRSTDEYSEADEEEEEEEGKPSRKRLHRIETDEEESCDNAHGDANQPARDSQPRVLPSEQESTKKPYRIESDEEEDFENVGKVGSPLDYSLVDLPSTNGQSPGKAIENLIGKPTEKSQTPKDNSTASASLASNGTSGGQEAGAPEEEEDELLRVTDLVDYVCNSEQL
UniProt Q9BQ15: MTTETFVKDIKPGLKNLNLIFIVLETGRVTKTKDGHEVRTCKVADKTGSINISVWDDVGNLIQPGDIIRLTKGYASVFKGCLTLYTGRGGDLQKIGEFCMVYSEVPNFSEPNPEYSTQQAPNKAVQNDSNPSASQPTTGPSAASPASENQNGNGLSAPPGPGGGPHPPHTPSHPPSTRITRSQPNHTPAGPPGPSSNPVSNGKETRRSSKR
UniProt Q96SY0, whole entry: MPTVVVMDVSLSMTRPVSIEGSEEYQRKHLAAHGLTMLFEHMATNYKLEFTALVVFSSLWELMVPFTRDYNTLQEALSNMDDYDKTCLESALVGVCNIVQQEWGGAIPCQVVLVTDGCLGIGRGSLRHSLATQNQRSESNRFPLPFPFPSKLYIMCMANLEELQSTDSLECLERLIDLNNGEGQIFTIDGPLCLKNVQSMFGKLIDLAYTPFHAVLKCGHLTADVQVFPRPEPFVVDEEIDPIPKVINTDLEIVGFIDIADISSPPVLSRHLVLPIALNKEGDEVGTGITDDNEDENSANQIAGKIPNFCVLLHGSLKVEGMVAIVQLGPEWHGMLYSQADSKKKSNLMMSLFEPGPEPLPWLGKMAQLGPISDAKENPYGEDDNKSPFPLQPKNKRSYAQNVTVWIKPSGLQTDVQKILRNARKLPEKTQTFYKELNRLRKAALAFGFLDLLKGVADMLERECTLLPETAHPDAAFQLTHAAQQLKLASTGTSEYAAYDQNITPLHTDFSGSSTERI
UniProt Q99439: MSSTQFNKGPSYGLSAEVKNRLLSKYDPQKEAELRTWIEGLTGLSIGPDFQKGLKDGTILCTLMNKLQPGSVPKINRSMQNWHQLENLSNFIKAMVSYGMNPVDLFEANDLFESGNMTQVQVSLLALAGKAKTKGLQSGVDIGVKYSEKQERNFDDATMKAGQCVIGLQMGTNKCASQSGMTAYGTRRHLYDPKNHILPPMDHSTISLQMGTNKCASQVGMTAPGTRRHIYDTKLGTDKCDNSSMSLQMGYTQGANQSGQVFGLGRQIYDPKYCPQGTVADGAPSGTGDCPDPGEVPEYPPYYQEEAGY
UniProt Q96T88: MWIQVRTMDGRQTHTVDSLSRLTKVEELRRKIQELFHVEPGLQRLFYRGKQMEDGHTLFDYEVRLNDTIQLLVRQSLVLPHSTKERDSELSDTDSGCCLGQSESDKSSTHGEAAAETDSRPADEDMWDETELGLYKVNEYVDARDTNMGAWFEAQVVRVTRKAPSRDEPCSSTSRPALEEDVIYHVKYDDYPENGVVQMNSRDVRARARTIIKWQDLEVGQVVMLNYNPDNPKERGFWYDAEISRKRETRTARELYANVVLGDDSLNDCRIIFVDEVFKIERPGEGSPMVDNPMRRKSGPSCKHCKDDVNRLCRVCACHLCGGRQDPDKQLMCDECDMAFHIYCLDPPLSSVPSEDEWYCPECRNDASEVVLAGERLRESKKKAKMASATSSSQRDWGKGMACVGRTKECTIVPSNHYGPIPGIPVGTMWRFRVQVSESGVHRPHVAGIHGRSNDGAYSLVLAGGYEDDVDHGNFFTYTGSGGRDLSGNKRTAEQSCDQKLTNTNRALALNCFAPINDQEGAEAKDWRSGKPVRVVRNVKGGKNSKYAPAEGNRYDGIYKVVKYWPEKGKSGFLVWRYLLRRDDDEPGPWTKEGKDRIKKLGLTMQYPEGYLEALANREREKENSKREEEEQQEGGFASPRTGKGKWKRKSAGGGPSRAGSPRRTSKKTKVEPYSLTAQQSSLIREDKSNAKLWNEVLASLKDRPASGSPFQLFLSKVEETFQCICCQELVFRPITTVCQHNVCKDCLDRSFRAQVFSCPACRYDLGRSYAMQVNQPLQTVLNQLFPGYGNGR
UniProt Q9BQ24: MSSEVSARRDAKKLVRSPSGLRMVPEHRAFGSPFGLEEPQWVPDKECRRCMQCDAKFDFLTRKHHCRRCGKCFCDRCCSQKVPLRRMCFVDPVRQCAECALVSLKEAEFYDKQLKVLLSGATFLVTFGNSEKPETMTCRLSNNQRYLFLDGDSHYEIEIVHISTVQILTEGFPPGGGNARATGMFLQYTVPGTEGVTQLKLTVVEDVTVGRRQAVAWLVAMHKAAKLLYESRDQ
UniProt Q96T76: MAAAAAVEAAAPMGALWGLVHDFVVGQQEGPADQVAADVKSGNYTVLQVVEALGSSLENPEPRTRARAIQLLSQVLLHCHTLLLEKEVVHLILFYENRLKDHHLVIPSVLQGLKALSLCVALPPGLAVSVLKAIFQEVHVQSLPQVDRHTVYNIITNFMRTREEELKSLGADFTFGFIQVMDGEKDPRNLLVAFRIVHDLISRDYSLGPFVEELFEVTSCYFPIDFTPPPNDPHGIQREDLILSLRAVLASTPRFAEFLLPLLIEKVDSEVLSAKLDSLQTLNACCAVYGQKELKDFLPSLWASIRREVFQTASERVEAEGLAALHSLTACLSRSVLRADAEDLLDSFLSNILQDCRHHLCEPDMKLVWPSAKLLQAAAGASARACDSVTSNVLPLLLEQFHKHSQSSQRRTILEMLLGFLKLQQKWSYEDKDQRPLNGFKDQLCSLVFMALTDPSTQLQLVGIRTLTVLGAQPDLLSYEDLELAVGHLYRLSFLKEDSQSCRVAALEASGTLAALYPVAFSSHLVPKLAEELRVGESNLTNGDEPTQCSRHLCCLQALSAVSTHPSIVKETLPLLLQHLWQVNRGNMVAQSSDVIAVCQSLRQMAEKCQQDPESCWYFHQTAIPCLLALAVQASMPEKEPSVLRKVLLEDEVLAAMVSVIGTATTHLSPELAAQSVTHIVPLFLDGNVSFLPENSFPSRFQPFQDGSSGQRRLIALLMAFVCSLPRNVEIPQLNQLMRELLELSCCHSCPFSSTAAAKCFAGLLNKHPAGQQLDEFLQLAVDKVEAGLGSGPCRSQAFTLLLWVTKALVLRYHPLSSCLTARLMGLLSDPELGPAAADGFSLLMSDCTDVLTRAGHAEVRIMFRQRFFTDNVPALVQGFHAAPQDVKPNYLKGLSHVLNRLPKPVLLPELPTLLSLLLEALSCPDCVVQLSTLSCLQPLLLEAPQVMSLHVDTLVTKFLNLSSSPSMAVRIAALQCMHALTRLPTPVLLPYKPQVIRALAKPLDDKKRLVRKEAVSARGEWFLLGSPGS

What follows are targets tested with COC(=O)/C=C/c1ccccc1 [methyl cinnamate] (assay: log2 ratio of iodoacetamide-alkyne labeling of the cysteine site, DMSO over compound (competition); higher = stronger covalent engagement of the cysteine by the compound, active = 1 or more). Conditions: 500 µM; treatment time 1 h; system: HEK293T cell lysate.
Summary of the method: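 After 1 h at ambient temperature with vehicle or electrophile (500 µM), HEK293T lysate (2 mg/mL) was labelled for 1 h with iodoacetamide alkyne and clicked to sCIP-TMT reagents. Pooled samples were trypsin-digested overnight at 37 °C, streptavidin-enriched, acid-eluted and analysed by Orbitrap Eclipse LC-MS/MS with FAIMS, then quantified in FragPipe over three replicates with duplicate channels. A cysteine's log2 competition ratio is its mean control-channel over mean compound-channel reporter intensity. Cysteines quantified in only one replicate were not included.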

log2 ratio of iodoacetamide-alkyne labeling, inactive:
UniProt Q99590_C506 -0.168, TBCB C216 (UniProt Q99426) 0.205, TTC1 C149 (UniProt Q99614) 0.162, MYBBP1A C623 (UniProt Q9BQG0) 0.0782, TUBA1C C347 (UniProt Q9BQE3) 0.179, UniProt Q96JA1_C1066 0.29, UniProt Q99590_C566 0.028, PARK7 C46 (UniProt Q99497) 0.117, USP47 C856 (UniProt Q96K76) 0.351, RSF1 C650 (UniProt Q96T23) 0.492, NABP2 C99 (UniProt Q9BQ15) 0.185, HNRNPAB C98 (UniProt Q99729) 0.211, SNX27 C247 (UniProt Q96L92) 0.282, MYBBP1A C614 (UniProt Q9BQG0) -0.326, UniProt Q96SY0_C193 -0.224, CNN2 C164 (UniProt Q99439) 0.159, UHRF1 C170 (UniProt Q96T88) 0.187, IFT140 C1360 (UniProt Q96RY7) 0.229, TTC1 C66 (UniProt Q99614) 0.382, ZFYVE21 C47 (UniProt Q9BQ24) -0.0368, MMS19 C549 (UniProt Q96T76) 0.174, CCT7 C511 (UniProt Q99832) -0.0822
